Laboratory results: the supplement of paper PMC12067093, “Discovery and optimisation of a covalent ligand for TRIM25 and its application to targeted protein ubiquitination” (Chemical Science, 2025)
Some of the results follow.

By UniProt entry, the sequences of proteins in these tests, tags left out. Where a name states a change or a piece, a line headed by the entry shows the natural chain unless it says otherwise.
UniProt P52429: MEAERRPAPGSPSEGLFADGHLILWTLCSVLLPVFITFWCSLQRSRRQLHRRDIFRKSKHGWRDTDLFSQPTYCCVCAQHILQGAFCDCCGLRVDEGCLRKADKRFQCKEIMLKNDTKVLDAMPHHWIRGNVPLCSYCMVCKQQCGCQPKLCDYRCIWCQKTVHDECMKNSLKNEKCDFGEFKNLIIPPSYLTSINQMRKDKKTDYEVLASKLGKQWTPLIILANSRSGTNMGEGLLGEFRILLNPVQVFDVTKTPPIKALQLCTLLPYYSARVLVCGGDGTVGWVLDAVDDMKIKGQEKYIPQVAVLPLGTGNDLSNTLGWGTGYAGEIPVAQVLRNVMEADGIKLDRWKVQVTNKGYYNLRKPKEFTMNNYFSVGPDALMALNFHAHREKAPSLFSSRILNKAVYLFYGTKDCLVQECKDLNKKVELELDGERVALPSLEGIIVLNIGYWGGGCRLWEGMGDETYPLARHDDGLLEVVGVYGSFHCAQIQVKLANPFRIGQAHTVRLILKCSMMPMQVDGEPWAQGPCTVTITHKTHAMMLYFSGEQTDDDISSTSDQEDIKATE
UniProt Q9NR30: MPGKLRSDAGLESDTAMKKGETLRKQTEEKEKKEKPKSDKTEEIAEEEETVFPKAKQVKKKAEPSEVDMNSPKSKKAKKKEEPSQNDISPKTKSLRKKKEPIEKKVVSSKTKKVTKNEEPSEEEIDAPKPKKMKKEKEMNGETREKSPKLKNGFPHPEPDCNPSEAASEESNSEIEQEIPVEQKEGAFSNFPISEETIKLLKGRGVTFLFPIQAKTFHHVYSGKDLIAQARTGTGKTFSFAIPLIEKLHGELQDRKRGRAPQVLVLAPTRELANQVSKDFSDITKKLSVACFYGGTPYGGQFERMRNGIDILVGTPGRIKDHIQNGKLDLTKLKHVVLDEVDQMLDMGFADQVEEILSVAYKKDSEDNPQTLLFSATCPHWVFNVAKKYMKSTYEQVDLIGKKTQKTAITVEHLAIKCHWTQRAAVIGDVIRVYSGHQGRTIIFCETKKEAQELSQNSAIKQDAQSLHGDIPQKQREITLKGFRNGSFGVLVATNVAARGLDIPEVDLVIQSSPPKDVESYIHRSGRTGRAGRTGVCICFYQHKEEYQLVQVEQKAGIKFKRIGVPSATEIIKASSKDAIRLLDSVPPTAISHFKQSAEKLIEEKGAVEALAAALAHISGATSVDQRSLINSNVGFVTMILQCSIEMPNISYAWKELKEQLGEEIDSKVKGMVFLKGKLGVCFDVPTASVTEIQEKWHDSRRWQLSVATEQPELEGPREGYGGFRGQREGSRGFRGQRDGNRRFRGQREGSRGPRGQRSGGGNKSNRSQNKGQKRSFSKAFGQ
UniProt Q96GG9: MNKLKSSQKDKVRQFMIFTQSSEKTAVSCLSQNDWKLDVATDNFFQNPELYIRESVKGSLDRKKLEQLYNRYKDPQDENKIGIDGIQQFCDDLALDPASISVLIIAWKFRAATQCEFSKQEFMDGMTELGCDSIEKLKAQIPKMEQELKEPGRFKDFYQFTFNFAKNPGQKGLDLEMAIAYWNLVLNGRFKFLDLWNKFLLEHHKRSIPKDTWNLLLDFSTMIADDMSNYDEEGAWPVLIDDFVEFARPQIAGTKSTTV
UniProt P26196: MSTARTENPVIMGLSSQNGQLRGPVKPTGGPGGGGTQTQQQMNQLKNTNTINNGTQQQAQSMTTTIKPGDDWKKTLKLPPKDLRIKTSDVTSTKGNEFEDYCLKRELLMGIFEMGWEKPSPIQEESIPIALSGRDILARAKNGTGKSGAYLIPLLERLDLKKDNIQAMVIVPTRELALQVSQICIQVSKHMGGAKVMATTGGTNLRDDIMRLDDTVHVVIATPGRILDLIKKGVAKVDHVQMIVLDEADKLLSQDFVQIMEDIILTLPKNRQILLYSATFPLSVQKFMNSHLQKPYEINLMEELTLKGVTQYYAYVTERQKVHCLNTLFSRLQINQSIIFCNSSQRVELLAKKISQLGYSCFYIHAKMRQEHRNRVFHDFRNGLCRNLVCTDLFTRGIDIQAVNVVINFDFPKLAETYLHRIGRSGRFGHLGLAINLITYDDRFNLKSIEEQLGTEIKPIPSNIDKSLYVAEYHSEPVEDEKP
UniProt Q16531, whole entry, looked up: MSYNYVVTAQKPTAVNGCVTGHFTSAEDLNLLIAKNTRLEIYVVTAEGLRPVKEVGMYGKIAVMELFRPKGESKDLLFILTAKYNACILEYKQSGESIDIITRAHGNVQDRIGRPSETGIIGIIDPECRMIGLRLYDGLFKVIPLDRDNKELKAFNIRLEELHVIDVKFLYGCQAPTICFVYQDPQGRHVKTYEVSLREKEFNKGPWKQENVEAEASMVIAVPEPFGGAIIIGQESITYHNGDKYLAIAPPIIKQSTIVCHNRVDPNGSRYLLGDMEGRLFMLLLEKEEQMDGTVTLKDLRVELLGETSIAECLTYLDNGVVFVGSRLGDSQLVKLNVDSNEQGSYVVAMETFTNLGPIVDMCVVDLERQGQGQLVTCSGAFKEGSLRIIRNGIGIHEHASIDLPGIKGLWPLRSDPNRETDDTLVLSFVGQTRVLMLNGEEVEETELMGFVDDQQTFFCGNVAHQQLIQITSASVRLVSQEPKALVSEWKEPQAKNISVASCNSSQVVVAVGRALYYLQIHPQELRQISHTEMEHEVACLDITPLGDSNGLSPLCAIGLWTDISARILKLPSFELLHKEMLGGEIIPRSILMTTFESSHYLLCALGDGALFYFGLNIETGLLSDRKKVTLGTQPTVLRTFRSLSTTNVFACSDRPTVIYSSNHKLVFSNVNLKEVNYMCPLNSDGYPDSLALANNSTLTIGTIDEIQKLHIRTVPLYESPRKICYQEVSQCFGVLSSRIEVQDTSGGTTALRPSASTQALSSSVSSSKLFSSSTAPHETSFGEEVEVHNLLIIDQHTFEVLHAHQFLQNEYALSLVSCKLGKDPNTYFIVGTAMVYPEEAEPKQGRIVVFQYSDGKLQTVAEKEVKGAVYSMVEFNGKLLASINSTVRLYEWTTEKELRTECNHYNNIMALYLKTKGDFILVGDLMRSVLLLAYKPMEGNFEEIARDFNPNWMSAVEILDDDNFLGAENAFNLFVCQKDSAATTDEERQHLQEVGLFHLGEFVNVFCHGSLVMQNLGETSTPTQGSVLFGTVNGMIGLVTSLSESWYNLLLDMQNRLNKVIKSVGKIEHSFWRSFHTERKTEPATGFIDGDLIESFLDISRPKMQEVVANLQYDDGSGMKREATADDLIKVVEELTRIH
UniProt O95865: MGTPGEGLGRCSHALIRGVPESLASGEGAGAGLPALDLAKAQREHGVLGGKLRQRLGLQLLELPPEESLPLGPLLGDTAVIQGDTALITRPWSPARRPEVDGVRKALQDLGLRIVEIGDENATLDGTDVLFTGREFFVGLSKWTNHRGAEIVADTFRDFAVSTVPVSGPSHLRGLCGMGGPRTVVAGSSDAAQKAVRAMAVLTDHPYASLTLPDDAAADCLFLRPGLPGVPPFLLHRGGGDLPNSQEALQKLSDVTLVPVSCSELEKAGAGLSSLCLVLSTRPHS
UniProt O00571: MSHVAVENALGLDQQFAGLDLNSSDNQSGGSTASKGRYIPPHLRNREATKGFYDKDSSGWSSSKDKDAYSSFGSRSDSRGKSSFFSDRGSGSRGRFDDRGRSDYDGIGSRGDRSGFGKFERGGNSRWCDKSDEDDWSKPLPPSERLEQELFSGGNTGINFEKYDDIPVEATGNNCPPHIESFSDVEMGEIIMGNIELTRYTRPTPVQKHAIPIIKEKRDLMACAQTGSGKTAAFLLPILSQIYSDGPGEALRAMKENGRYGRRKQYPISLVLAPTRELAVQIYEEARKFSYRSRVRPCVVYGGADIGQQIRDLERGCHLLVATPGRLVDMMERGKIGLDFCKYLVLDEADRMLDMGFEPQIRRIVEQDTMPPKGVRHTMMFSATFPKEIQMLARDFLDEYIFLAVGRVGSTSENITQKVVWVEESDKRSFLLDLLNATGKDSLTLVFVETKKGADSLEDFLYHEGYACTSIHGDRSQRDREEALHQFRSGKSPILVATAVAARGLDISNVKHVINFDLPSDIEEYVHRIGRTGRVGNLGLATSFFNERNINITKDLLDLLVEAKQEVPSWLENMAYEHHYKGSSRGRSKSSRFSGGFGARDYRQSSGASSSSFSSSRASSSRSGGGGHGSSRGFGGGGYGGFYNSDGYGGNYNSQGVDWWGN
UniProt Q13574: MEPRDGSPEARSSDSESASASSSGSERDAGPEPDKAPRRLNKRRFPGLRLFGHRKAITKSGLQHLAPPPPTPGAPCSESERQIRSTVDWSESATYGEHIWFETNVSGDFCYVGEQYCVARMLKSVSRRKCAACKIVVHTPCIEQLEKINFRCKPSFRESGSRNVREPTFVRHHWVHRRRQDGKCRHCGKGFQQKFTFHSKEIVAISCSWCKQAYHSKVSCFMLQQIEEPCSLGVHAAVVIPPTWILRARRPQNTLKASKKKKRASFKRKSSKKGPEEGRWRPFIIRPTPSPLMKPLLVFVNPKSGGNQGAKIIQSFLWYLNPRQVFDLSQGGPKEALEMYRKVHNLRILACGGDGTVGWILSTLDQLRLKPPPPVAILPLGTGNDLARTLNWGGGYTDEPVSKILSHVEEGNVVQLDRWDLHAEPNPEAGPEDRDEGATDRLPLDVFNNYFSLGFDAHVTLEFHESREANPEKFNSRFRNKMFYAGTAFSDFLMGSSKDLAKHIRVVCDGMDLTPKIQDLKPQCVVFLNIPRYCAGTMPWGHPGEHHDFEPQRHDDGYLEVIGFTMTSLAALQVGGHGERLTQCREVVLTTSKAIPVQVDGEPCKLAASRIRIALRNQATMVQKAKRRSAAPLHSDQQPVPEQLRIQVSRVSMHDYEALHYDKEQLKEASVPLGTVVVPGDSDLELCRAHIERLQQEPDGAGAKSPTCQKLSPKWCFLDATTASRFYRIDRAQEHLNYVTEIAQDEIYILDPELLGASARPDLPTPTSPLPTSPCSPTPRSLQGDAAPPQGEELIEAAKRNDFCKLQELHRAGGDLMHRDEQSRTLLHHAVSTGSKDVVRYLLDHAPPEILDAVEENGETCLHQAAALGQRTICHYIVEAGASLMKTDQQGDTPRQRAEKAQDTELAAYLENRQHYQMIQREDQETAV
UniProt Q86XP3: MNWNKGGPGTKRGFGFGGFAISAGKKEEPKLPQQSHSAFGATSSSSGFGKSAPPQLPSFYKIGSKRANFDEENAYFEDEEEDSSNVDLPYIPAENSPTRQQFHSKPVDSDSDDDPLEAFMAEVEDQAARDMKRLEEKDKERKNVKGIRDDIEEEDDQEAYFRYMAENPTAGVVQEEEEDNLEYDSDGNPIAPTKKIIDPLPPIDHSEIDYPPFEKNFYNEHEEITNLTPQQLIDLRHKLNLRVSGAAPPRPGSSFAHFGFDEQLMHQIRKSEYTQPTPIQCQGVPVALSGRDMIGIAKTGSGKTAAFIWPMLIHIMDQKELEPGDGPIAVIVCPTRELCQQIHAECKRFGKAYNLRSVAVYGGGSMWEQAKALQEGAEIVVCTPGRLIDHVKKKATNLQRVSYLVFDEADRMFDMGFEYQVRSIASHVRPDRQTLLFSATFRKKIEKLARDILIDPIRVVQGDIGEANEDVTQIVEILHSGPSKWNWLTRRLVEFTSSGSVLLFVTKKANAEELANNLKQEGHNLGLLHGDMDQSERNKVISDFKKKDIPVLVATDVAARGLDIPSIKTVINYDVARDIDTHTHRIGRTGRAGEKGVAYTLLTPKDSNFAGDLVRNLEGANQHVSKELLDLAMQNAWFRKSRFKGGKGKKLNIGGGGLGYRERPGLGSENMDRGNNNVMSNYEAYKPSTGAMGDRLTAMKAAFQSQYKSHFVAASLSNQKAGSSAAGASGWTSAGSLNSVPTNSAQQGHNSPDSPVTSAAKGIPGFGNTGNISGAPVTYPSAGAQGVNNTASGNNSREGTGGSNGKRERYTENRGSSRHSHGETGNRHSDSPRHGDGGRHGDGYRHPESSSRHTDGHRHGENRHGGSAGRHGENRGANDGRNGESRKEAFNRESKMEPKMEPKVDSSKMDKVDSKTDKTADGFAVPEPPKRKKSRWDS
UniProt O00148, whole entry, looked up: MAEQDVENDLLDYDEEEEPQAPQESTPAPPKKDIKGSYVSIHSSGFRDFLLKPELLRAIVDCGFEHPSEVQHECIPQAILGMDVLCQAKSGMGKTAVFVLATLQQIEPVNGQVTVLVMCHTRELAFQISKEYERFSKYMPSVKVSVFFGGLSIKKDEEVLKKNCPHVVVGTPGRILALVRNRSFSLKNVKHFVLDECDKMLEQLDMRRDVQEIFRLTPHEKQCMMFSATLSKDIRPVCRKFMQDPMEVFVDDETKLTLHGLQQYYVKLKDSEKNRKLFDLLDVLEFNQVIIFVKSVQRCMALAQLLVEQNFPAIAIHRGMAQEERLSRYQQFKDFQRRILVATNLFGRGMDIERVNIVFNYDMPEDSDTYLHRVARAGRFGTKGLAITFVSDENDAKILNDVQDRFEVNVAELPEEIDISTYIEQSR

Compound: CC1Cc2ccccc2N1C(=O)C1CCCN(C1)C(=O)CCl (mixture of isomers) [TRIM25 ligand 11 (diastereomer mixture)]
Assay: probe-labelled cysteine peptide fold change vs DMSO (competition) (log2 fold change); higher = less target engagement (more negative = stronger competition)
Conditions: THP-1, incubation time: 4 h
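Further: competitive chemoproteomic profiling in live THP-1 cells with an iodoacetamide desthiobiotin (IA-DTB) probe, comparing probe-labelled peptide intensities in compound-treated cells against DMSO-treated controls.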

Target | probe-labelled cysteine peptide fold change (10 µM) | probe-labelled cysteine peptide fold change (50 µM)
DDX28_Q9NUL7_360_LHCIMPHVK (UniProt Q9NUL7) | -0.061 | 0.0889
DDX27_Q96GQ7_357_LIDHLHNCPSFHLSSIEVLILDEADR (UniProt Q96GQ7) | 0.388 | 0.0579
DGKE_P52429_167_TVHDECMK (UniProt P52429) | -0.069 | -0.158
DDX21_Q9NR30_539_TGVCICFYQHK (UniProt Q9NR30) | -0.0402 | -0.0081
DCUN1D1_Q96GG9_131_QEFMDGMTELGCDSIEK (UniProt Q96GG9) | 0.133 | 0.121
DDX6_P26196_102_GNEFEDYCLK (UniProt P26196) | 0.043 | -0.134
DDB1_Q16531_903_TECNHYNNIMALYLK (UniProt Q16531) | 0.114 | 0.0907
DDAH2_O95865_176_GLCGMGGPR (UniProt O95865) | -0.108 | -0.289
DDX3X_O00571_298_VRPCVVYGGADIGQQIR (UniProt O00571) | 0.0311 | 0.0746
DGKZ_Q13574_793_AIPVQVDGEPCK (UniProt Q13574) | 0.052 | -0.0179
DDX42_Q86XP3_333_ELEPGDGPIAVIVCPTR (UniProt Q86XP3) | 0.0933 | 0.0408
DDA1_Q9BW61_25_FHADSVCK (UniProt Q9BW61) | -0.197 | -0.451
DDX39A_O00148_223_QCMMFSATLSK (UniProt O00148) | -0.114 | -0.0857
DDX46_Q7L014_646_ASYPCMSLHGGIDQYDRDSIINDFK (UniProt Q7L014) | -0.0109 | -0.193
DDX31_Q9H8H2_413_DITVILNAVNAECQK (UniProt Q9H8H2) | 0.101 | 0.158

Part of the list above in a different format.
DDA1_Q9BW61_25_FHADSVCK (UniProt Q9BW61)
  probe-labelled cysteine peptide fold change (10 µM): -0.197; probe-labelled cysteine peptide fold change (50 µM): -0.451
DDX39A_O00148_223_QCMMFSATLSK (UniProt O00148)
  probe-labelled cysteine peptide fold change (10 µM): -0.114; probe-labelled cysteine peptide fold change (50 µM): -0.0857
